The values below come from article PMC9177958.

The test system of the series is UPF3B-WT + UPF2L. Kind of series: EMSA. The conditions noted are these: 2 mM MgCl2, UPF2L dissolves UPF3B-RNA oligomers, defined-stoichiometry complex; EMSA: 250 nM probe, 25 mM HEPES pH 7.45, 2 mM MgCl2, 150 mM NaCl, 0.5 mM TCEP, on ice; recombinant protein; protein details: 6xHis removed by TEV,6xHis removed by TEV; label: 5' HEX.

Construct, isoform or probe ends are uncertain for at least one entry. At least one verdict was read from the data and is not stated in words by the source.

As to CACUGAUCUGACGCUGCACCUGGG [24mer ssRNA], the binding result is recorded as “binds”.
